From PMC10163288
Some of the results follow.

B1: il10ra_site1_sap_22_mot_HHH_b1_04940_000000219_0001_1_18_H_._HHH_b1_07376_0001_0000200013_0000001_0_0001 (protein)
chain: SSSSSSDEEEVEELLEEAEKISDERERNEVLIRALKIAIQLGNPELLQLVWEVVHKLNSSSSSSS
B2: il10ra_site1_normal_mot_HHH_b1_00682_000000211_0001_1_20_H_._HHH_b2_05022_af2_0001_0000300024_0000002_0 (protein)
chain: SSSSDAEELAEEVIRRLEELLERGDNDEVYKLLREAVEELRELNNEEALRLLIEFVAHLFSSSSS
B3: il10ra_site1_normal_mot_HHH_b2_01310_000000089_0001_41_55_H_._HHH_b1_07197_af2_0001_0000300012_0000001_0_af2pred_0001 (protein)
chain: SSSSSEVEKRVEELLEEAEQLIEEGDEEEVIRLLREALRFALEAQNPELIELVYEVARLLSSSSS
B4: il10ra_site1_sap_21_mot_HHH_b2_07006_000000108_0001_1_19_H_._HHH_b1_04108_af2_0001_0000200002_0000001_0_0001 (protein)
chain: SSSSDASRRIYELLRRAMELLDEGNPEEARKLVEEAEELAEEANNMILLEVLKFVEEQINSSSSS
B5: il10ra_site1_normal_mot_b26a303360aa2756ef5b79665ce52f45_0001_000000179_0001_1_11_H_._HHH_b1_06778_0001_0000200024_0000001_0_af2pred_0001 (protein)
chain: SSSSSSSDESVKLIRRVVELARLNTEESREEIKEIIEILEELGTLIALVAARHLLRAHSSSSSSS
B6: il10ra_site1_sap_16_mot_HHH_b1_03314_af2_000000278_0001_42_55_H_._HHH_b1_02981_0001_0000200012_0000001_0_0001 (protein)
chain: SSSSSAQEVFELLKRAIELAKEGNPEEAEELLKRAEEIAEEQNSKVMKWVIEFVEEEVKRLSSSS
B7: il10ra_site1_normal_mot_HHH_b1_04771_000000013_0001_40_56_H_._HHH_b2_04957_af2_0001_0000400010_0000002_0 (protein)
chain: SSSSDELVEEAVKLSTKAFELALRGNKEEAEKVLEEAEEIAEEGNDPRIREVVEDLKEALSSSSS
B8: il10ra_site1_normal_mot_HHH_b1_01874_000000035_0001_1_20_H_._HHH_b2_03660_0001_0000200010_0000001_0 (protein)
chain: SSSSDLFEEVRELLEQAFELLHEGNPEEAERLAEEALKLAEERNNDVFRFSIRLLLRDIGSSSSS
B9: il10ra_site1_normal_mot_HHH_b1_05370_000000138_0001_1_16_H_._HHH_b2_06500_af2_0001_0000400005_0000002_0 (protein)
chain: SSSSDEEIEERVKELLEEAEKTDDVDEFYELLREAIELAAEGRDPELLELVREILRRFLRSSSSS
B10: il10ra_site1_normal_mot_HHH_b1_05254_000000006_0001_1_19_H_._HHH_b1_03268_0001_0000200021_0000002_0 (protein)
chain: SSSSSADEAYELLRRAIELAKEGNPEEARELLKEAKEIAEELNSEVLKWLIEFVEEEVEKSSSSS
B11: il10ra_site1_normal_mot_HHH_b2_02053_af2_000000006_0001_3_19_H_._HHH_b1_03421_0001_0000100006_0000002_0 (protein)
chain: SSSSSDAAEEVYRLSREALELRARGNPEEARRVAEEAEEVAEEGNNPVLLIVVRFLLRDLSSSSS
B12: il10ra_site1_sap_19_mot_HHH_b2_00401_000000001_0001_40_54_H_._HHH_b2_02467_af2_0001_0000300016_0000002_0_0001 (protein)
chain: SSSSDEERRRLARLMEEFVEAFIRNDEELVRELTEEAAKLAQELGNERLLKFLEDMERSLSSSSS
B13: il10ra_site1_normal_mot_HHH_b2_03220_af2_000000223_0001_23_40_H_._HHH_b1_03379_af2_0001_0000400019_0000001_0_af2pred_0001 (protein)
chain: SSSSSSSEARRVVELIREALRIEDPEEAEEVLREAEEIAEELGDELLRLMVEAAKRRLSSSSSSS
B14: il10ra_site1_sap_24_mot_HHH_b1_05254_000000006_0001_1_19_H_._HHH_b2_03810_af2_0001_0000400052_0000001_0_0001 (protein)
chain: SSSSEEVEELLKQVEEALKEGDPKKALHLLWRALKLAVEEDDPELIEEIYELLRETWERSHSSSS
B15: il10ra_site1_normal_mot_HHH_b2_00230_000000227_0001_1_19_H_._HHH_b1_03982_0001_0000200023_0000001_0 (protein)
chain: SSSSDESYEIVRKAIEEAVEALRNGNPEEARKIVEEAIELIEELGNVNARHVLEHLLRIINSSSS
B16: il10ra_site1_normal_mot_5fda0655e6834f3f331eaa9f580e88ed_0001_af2_000000239_0001_36_50_H_._a6da520ff4a02840130205282d0b8d49_0001_0001_0000100004_0000001_0_af2pr … (protein)
chain: SREFQQLLAALEAAGGDPRQVELLLEAALRLLGDPAVEKVLRLLREALERGIPPEELLKELEEEG
B17: il10ra_site1_normal_mot_HHH_b1_06994_000000193_0001_40_55_H_._HHH_b1_06996_0001_0000100003_0000001_0_af2pred_0001 (protein)
chain: SSSSDREEQLARAALRLVEILIKAGDEEQARLFLRNAKYSVERLGDDEILRKLEELEEELSSSSS
B18: il10ra_site1_sap_27_mot_HHH_b1_06128_000000102_0001_1_20_H_._HHH_b1_02043_af2_0001_0000100004_0000002_0_0001 (protein)
chain: SSSSDVEEEVRELLEEAQRYYEEGNPQEVFRLIEEAIKVASEHGDEEAQKLVHEFLHEMFGSSSS
B19: il10ra_site1_sap_22_mot_HHH_b1_06804_000000054_0001_40_54_H_._HHH_b1_06220_0001_0000300030_0000002_0_0001_af2pred_dldesign_0_af2pred (protein)
chain: SSSSSPEVDALVRRSVELAKQLEDKEERLRAVRYALAIAEAANNAAAAALAREAIEEILESSSSS
B20: il10ra_site1_normal_mot_8756ee2cf497b5429c717dfc0c0bcfd6_0001_000000186_0001_1_13_H_._HHH_b1_05110_0001_0000100003_0000001_0_af2pred_0001 (protein)
chain: SSSSSEELERVQELLRRLAELISDGDDEEARQLIEEAKELIEEANSEVLRAILEFLEKLLNSSSS
B21: il10ra_site1_normal_mot_HHH_b2_00984_000000042_0001_1_20_H_._HHH_b2_04190_0001_0001400028_0000001_0 (protein)
chain: SSSSSSDLEELLEELEEAVREGDRELVSRIAQRAARHAMELGDQETLRELWELIQKFARSSSSSS
B22: il10ra_site1_sap_14_mot_HHH_b2_02649_000000088_0001_38_55_H_._81d5ae1f4baf8c7fe012e9a1203c0b55_0001_af2_0001_0000600011_0000001_1_0001 (protein)
chain: SSSSDEERHELFELLREIAELEHDGNPEEARKLLEEAQEIAEEAGNRLFLWQLRFLEETISSSSS
B23: il10ra_site1_normal_mot_HHH_b1_02809_af2_000000277_0001_40_57_H_._HHH_b2_06724_0001_0000600014_0000001_0_af2pred_0001 (protein)
chain: SSSSSSSDEEAVRRLLEAAKLIEDEELLKLSLKFAEALARALNNEELERLIKEVEEEVSSSSSSS
B24: il10ra_site1_normal_mot_HHH_b2_06752_000000207_0001_1_21_H_._HHH_b1_05292_0001_0000300020_0000002_0_af2pred_0001 (protein)
chain: SSSSSHDQEAARAIEKLAKLADTPELLKLALRSARALLEATKDEEAQEILEEVERLLEELLSSSS

biological target: il10ra, Q13651; test: yeast display titration

Apparent Kd, inactive:
B1 no binding seen
B2 no binding seen
B3 no binding seen
B4 no binding seen
B5 no binding seen
B6 no binding seen
B7 no binding seen
B8 no binding seen
B9 no binding seen
B10 no binding seen
B11 no binding seen
B12 no binding seen
B13 no binding seen
B14 no binding seen
B15 no binding seen
B16 no binding seen
B17 no binding seen
B18 no binding seen
B19 no binding seen
B20 no binding seen
B21 no binding seen
B22 no binding seen
B23 no binding seen
B24 no binding seen

Already shown: entries from further up.
Apparent Kd, inactive:
B15 no binding seen
B16 no binding seen
